The text below walks through data of patent publication US20250295798A1 (BeiGene Switzerland GmbH, priority 2022, published 2025).

The data set in a line: peptide synthesis. Particulars: for conjugation yield / final purity (method not given): conjugation step.

For “benzyl (5S,14S)-14-benzyl-1-(9H-fluoren-9-yl)-3,6,9,12,15,18-hexaoxo-5-(3-oxo-3-((((2S,3R,4R,5S,6R)-3,4,5-trihydroxy-6-(hydroxymethyl)tetrahydro-2H-pyran-2-yl)methyl)amino)propyl)-2,21-dioxa-4,7,10,13,16,19-hexaazatricosan-23-oate”, the step yield (coupling step) is on record as 51.0% yield. In turn, “(9H-fluoren-9-yl)methyl((10S)-10-benzyl-1-((9S)-9-ethyl-5-fluoro-9-hydroxy-4-methyl-10,13-dioxo-2,3,9,10,13,15-hexahydro-1H,12H-benzo[de]pyrano[3′,4′:6,7]indolizino[1,2-b]quinolin-1-yl)-6,9,12,15-tetraoxo-3-oxa-5,8,11,14-tetraazahexadecan-16-yl)carbamate (3-26a)” gave a conjugation yield of 66% yield. Turning to “benzyl (11S)-1-benzyl-1-(9H-fluoren-9-yl)-20-fluoro-20-methyl-3,6,9,12,15-pentaoxo-2,18-dioxa-4,7,10,13,16-pentaazahenicosan-21-oate (3-24b)”, the step yield (late stage modification step) is recorded as 67.7% yield.

In turn, “(9H-fluoren-9-yl)methyl ((6S,15S)-15-benzyl-3,7,10,13,16,19-hexaoxo-1-((2S,3R,4R,5S,6R)-3,4,5-trihydroxy-6-(hydroxymethyl)tetrahydro-2H-pyran-2-yl)-22-oxa-2,8,11,14,17,20-hexaazahexacos-25-yn-6-yl)carbamate (3-13c)” came in with a step yield (coupling step) of 57.1% yield. The same measure, in the same setting: for “benzyl (5S,14S)-14-benzyl-1-(9H-fluoren-9-yl)-23-fluoro-23-methyl-3,6,9,12,15,18-hexaoxo-5-(3-oxo-3-((((2S,3R,4R,5S,6R)-3,4,5-trihydroxy-6-(hydroxymethyl)tetrahydro-2H-pyran-2-yl)methyl)amino)propyl)-2,21-dioxa-4,7,10,13,16,19-hexaazatetracosan-24-oate (3-24d)” the value was 52.9% yield. On to “(9H-fluoren-9-yl)methyl ((S)-12-benzyl-2-((1S,9S)-9-ethyl-5-fluoro-9-hydroxy-4-methyl-10,13-dioxo-2,3,9,10,13,15-hexahydro-1H,12H-benzo[de]pyrano[3′,4′:6,7]indolizino[1,2-b]quinolin-1-yl)-8,11,14,17-tetraoxo-5-oxa-2,7,10,13,16-pentaazaoctadecan-18-yl)carbamate (3-6a)”, for which the “final purity (method not given)” value turned out to be 53% purity. Substance “(5S,14S)-14-benzyl-1-(9H-fluoren-9-yl)-23-fluoro-23-methyl-3,6,9,12,15,18-hexaoxo-5-(3-oxo-3-((((2S,3R,4R,5S,6R)-3,4,5-trihydroxy-6-(hydroxymethyl)tetrahydro-2H-pyran-2-yl)methyl)amino)propyl)-2,21-dioxa-4,7,10,13,16,19-hexaazatetracosan-24-oic acid (3-24e)” came in with a step yield (late stage modification step) of 100% yield. On the same count and under the same terms, the same measure for “(9H-fluoren-9-yl)methyl (S)-(7-benzyl-2,5,8,11-tetraoxo-14-oxa-3,6,9,12-tetraazaoctadec-17-yn-1-yl)carbamate (3-13a)”: “yield 70.3%”.

As for “(9H-fluoren-9-yl)methyl ((S)-12-benzyl-1-(((1S,9S)-9-ethyl-5-fluoro-9-hydroxy-4-methyl-10,13-dioxo-2,3,9,10,13,15-hexahydro-1H,12H-benzo[de]pyrano[3′,4′:6,7]indolizino[1,2-b]quinolin-1-yl)amino)-1,8,11,14,17-pentaoxo-2,5-dioxa-7,10,13,16-tetraazaoctadecan-18-yl)carbamate (3-5a)”, the conjugation yield came out at 70% yield and the “final purity (method not given)” value is on record as 87% purity.

Regarding “benzyl(S)-11-benzyl-1-(9H-fluoren-9-yl)-3,6,9,12,15-pentaoxo-2,18-dioxa-4,7,10,13,16-pentaazahenicosan-21-oate (3-22b)”, under “late stage modification step”, the step yield is given as 83.9% yield. In turn, “benzyl(5S,14S)-14-benzyl-1-(9H-fluoren-9-yl)-3,6,9,12,15,18-hexaoxo-5-(3-oxo-3-((((2S,3R,4R,5S,6R)-3,4,5-trihydroxy-6-(hydroxymethyl)tetrahydro-2H-pyran-2-yl)methyl)amino)propyl)-2,21-dioxa-4,7,10,13,16,19-hexaazatetracosan-24-oate (3-22d)” returned a step yield (coupling step) of 80.9% yield.
